Experimental data: publication PMC2875168 (Cancer research, 2009)

Columns and labels:
Type in all cases: cell-based
MCF-7 = assay: Cell growth, sulforhodamine B; conditions: Homo sapiens, MCF7, 72 h, read-out: IC50 growth inhibition
MDA-MB-231 = assay: Cell growth, sulforhodamine B; conditions: Homo sapiens, MDA-MB-231, 72 h, read-out: IC50 growth inhibition
T47D = assay: Cell growth, sulforhodamine B; conditions: Homo sapiens, 72 h, read-out: IC50 growth inhibition
ZR-75-1 = assay: Cell growth, sulforhodamine B; conditions: Homo sapiens, ZR-75-1, 72 h, read-out: IC50 growth inhibition
BT474 = assay: Cell growth, sulforhodamine B; conditions: Homo sapiens, BT-474, 72 h, read-out: IC50 growth inhibition
BT20 = assay: Cell growth, sulforhodamine B; conditions: Homo sapiens, BT-20, 72 h, read-out: IC50 growth inhibition
MCF-10A = assay: Cell growth, sulforhodamine B; conditions: Homo sapiens, 72 h, read-out: IC50 growth inhibition
HMEC = assay: Cell growth, sulforhodamine B; conditions: Homo sapiens, 72 h, read-out: IC50 growth inhibition
COLO-205 = assay: Cell growth, sulforhodamine B; conditions: Homo sapiens, COLO 205, 72 h, read-out: IC50 growth inhibition
HCT-116 = assay: Cell growth, sulforhodamine B; conditions: Homo sapiens, HCT-116, 72 h, read-out: IC50 growth inhibition
HCT-116 (p53-/-) = assay: Cell growth, sulforhodamine B; conditions: Homo sapiens, HCT-116, 72 h, read-out: IC50 growth inhibition
A549 = assay: Cell growth, sulforhodamine B; conditions: Homo sapiens, A549, 72 h, read-out: IC50 growth inhibition
NCI-460 = assay: Cell growth, sulforhodamine B; conditions: NCI-460, 72 h, read-out: IC50 growth inhibition
U2OS = assay: Cell growth, sulforhodamine B; conditions: Homo sapiens, 72 h, read-out: IC50 growth inhibition
PC3 = assay: Cell growth, sulforhodamine B; conditions: Homo sapiens, PC-3, 72 h, read-out: IC50 growth inhibition
LNCaP = assay: Cell growth, sulforhodamine B; conditions: Homo sapiens, 72 h, read-out: IC50 growth inhibition
HepG2 = assay: Cell growth, sulforhodamine B; conditions: Homo sapiens, HepG2, 72 h, read-out: IC50 growth inhibition
[1] = tested on: panel of cell lines representing a range of tumour types; assay: Cell growth, SRB assay, whole panel; conditions: 72 h, read-out: IC50 values, range over all cell lines tested

IC50 (MCF-7): 13 µM | IC50 (MDA-MB-231): 18 µM | IC50 (T47D): 25 µM | IC50 (BT474): 30.5 µM | IC50 (BT20): 32.5 µM | IC50 (COLO-205): 8 µM | IC50 (HCT-116): 17.5 µM | IC50 (HCT-116 (p53-/-)): 8 µM | IC50 (A549): 17 µM | IC50 (U2OS): 10.5 µM | IC50 (PC3): 10.8 µM | IC50 (LNCaP): 8.4 µM | IC50 (HepG2): 12.3 µM | IC50 [1]: 8 to 33.5 µM
Structure (SMILES): CC[C@H](CO)Nc1nc(NCc2ccccc2)c2ncn(C(C)C)c2n1 [Roscovitine, roscovitine, reference compound]
IC50 (ZR-75-1): 33.5 µM | IC50 (MCF-10A): 12.5 µM | IC50 (HMEC): 20.5 µM | IC50 (NCI-460): 9.5 µM
